The target of the experiment is budding yeast condensin holoenzyme (heteropentamer of Smc2, Smc4, Brn1, Ycg1 and Ycs4) (budding yeast) (UniProt P38989+Q12267+P38170+Q06680+Q06156). Briefly: condition: only the pooled monomeric SEC fractions, kept at 4 °C for 2 hours and re-run; SEC; terminal fractions of the monomeric peak pooled, concentrated, kept at 4 °C for 2 hours and re-run on the same Superose 6 column; in a further run monomer incubated with or without 1 mM ATP at 4 °C for 16 hours (no significant effect of ATP); both purified.

Amino acid sequences for entries named in this document (tags omitted). A change or cut given only in a name is not applied to a line headed by its entry.
UniProt P38989: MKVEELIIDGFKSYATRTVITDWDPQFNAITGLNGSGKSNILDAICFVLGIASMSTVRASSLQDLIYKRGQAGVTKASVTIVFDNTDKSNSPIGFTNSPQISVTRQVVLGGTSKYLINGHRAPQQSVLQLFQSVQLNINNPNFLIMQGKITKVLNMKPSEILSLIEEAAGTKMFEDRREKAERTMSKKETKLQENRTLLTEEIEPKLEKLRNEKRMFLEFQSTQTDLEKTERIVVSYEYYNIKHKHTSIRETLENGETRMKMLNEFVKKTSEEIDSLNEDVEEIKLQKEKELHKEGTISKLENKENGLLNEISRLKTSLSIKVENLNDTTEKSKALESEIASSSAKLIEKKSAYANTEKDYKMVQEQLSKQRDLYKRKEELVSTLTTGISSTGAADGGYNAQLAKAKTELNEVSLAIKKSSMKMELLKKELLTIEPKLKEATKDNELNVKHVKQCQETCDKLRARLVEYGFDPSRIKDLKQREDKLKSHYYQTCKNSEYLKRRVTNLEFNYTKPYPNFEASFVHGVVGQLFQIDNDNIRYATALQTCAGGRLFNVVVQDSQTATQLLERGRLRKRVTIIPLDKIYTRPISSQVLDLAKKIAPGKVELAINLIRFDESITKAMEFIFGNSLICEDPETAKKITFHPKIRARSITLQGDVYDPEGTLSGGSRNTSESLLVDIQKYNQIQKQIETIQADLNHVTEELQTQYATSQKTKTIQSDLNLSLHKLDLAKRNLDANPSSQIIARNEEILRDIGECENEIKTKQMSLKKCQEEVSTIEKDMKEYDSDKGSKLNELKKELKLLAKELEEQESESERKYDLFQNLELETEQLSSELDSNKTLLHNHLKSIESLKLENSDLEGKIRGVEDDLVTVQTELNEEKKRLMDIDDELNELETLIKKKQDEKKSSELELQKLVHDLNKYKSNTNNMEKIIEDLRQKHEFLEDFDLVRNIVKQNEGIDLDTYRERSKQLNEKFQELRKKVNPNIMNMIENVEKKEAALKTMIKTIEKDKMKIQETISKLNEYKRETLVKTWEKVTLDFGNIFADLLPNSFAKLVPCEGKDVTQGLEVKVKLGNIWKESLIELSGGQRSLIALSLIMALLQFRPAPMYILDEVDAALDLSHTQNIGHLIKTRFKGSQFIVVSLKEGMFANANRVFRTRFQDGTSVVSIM
UniProt Q12267: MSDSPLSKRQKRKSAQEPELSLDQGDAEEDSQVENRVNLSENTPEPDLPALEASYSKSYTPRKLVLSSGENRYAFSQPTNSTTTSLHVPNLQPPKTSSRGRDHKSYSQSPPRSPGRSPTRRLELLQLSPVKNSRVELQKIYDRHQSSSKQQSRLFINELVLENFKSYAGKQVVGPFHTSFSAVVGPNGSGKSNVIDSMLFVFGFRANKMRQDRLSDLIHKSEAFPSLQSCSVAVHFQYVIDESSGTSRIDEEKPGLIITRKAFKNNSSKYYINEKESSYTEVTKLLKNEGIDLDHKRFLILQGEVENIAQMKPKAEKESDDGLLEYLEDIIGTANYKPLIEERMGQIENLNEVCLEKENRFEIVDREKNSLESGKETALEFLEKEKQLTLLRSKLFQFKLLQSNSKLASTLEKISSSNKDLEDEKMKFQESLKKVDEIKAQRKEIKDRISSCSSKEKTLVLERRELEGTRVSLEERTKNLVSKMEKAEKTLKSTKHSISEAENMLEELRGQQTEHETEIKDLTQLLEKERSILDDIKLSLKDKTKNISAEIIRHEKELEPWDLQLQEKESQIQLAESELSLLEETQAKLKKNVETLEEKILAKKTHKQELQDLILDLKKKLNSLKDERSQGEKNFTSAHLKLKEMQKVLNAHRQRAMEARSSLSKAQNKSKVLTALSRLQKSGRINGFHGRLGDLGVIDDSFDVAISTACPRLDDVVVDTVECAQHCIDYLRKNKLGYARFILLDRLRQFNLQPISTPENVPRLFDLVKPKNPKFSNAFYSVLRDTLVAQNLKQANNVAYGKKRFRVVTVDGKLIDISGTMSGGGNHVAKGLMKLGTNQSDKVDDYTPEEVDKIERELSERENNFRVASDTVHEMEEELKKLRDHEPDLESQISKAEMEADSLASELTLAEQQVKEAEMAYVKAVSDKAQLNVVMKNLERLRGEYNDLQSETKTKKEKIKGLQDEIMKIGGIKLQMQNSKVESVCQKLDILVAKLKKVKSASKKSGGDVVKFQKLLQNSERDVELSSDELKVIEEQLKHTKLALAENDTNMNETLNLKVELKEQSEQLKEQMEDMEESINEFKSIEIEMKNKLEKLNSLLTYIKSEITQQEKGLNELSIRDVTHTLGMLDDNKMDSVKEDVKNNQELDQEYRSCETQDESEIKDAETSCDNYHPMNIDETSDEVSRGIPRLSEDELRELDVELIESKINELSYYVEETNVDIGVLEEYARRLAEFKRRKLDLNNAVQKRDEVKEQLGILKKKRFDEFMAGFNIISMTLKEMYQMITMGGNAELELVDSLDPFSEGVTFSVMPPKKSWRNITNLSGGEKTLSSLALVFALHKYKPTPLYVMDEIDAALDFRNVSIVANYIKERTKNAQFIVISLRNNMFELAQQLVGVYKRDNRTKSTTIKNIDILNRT
UniProt P38170: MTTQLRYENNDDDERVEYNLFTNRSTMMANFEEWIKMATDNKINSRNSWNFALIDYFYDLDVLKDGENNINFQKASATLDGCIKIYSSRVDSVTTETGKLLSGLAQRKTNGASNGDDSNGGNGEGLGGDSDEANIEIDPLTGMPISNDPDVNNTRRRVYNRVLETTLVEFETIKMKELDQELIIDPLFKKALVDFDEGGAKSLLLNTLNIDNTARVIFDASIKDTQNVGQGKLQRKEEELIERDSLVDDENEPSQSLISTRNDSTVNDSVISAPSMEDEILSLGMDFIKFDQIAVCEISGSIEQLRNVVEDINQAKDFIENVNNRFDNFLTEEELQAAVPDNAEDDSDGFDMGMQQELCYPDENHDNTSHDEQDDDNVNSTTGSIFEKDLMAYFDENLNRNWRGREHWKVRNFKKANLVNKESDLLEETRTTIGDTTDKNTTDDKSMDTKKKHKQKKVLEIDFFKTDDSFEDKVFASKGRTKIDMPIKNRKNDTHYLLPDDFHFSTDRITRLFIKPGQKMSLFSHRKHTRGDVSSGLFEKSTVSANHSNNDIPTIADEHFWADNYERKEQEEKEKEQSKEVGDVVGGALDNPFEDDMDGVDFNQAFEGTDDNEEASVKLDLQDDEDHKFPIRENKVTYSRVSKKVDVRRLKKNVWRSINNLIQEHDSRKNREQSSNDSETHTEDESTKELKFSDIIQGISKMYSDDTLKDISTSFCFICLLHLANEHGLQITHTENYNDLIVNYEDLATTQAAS
UniProt Q06680: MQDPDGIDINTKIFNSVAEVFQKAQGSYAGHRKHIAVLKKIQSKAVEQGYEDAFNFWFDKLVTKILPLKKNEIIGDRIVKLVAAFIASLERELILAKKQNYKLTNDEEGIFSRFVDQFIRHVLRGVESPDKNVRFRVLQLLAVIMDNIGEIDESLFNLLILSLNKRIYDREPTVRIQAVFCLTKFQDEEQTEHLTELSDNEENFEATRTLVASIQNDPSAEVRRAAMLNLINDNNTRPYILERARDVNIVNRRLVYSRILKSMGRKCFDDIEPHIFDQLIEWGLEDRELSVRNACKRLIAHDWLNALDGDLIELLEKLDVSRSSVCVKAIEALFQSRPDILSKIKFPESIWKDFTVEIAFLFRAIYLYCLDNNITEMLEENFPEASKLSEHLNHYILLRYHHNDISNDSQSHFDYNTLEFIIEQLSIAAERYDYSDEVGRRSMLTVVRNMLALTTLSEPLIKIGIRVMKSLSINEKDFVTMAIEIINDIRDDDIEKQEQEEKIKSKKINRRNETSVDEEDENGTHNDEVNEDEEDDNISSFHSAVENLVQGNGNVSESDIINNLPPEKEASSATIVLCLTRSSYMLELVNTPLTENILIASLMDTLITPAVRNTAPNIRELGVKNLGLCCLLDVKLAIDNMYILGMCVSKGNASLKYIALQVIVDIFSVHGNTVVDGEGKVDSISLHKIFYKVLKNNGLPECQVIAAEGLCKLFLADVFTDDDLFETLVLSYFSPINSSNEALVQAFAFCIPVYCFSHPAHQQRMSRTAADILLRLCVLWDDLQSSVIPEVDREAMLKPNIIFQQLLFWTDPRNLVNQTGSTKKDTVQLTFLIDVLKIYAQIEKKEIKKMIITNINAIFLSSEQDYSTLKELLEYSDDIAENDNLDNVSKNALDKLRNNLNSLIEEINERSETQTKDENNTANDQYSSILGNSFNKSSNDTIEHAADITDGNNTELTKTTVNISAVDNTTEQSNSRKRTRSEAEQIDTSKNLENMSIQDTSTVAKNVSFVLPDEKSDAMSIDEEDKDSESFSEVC
UniProt Q06156: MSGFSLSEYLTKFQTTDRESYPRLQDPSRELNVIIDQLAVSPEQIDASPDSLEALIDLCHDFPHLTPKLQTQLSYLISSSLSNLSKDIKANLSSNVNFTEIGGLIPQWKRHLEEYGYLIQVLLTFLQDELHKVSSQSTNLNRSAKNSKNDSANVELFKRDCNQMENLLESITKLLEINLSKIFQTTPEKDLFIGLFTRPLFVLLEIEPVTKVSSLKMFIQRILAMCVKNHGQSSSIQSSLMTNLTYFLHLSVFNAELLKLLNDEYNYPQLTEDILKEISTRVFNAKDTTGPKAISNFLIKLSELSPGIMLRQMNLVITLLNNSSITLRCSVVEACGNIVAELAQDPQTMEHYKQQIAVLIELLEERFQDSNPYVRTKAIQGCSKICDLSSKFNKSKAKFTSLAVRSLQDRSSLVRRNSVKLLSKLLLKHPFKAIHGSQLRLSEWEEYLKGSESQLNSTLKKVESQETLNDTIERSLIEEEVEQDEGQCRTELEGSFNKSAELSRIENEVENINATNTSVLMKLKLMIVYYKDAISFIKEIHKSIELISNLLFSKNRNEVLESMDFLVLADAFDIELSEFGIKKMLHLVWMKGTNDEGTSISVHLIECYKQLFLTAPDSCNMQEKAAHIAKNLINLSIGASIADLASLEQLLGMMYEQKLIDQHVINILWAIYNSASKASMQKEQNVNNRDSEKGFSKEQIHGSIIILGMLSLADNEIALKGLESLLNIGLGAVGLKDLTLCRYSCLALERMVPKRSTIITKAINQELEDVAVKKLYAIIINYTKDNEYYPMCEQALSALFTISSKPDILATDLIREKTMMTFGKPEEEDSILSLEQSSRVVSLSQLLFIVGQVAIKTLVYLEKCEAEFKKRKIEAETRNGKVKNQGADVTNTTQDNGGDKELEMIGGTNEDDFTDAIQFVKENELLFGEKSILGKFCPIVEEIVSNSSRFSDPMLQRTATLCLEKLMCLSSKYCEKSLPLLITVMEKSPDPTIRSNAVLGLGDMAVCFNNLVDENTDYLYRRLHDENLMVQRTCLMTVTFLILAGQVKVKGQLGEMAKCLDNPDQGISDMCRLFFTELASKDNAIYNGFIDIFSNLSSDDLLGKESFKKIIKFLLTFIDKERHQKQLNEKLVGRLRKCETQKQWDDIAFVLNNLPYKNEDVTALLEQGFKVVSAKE

These are yes or no findings as the source states them, for the method shown.

For “budding yeast condensin holoenzyme (heteropentamer of Smc2, Smc4, Brn1, Ycg1 and Ycs4) (from UniProt P38989 1-1170; Q12267 1-1418; P38170 1-754; Q06680 1-1035; Q06156 1-1176) (complex)”, the binding result was “no binding”.

Source of the values: paper PMC5660149, “Oligomerization and ATP stimulate condensin-mediated DNA compaction” (Scientific Reports, 2017).
